Publication PMC7819943, “Rice protein-binding microarrays: a tool to detect cis-acting elements near promoter regions in rice”
The list shows a part of the results.

What follows are sequences tested against T1, OsSMF1 (Oryza sativa, UniProt Q6ZLB0 1-436) (assay: protein-binding microarray (RPBM); PBS, 2% BSA, 51.3 ng/ul salmon testes DNA, 50 uM zinc acetate, 200 nM TF, 25 C, 1 h; high values mean tight binding). Conditions: protein: recombinant; tags: N-terminal polyhistidine and DsRed monomer fusion (pET32a); chain copies: 2; label: CyDye5-dUTP incorporated in the synthesized complementary strand; 3' TTTTT single-stranded linker to array surface; dsDNA, one strand shown.
T1 sequence: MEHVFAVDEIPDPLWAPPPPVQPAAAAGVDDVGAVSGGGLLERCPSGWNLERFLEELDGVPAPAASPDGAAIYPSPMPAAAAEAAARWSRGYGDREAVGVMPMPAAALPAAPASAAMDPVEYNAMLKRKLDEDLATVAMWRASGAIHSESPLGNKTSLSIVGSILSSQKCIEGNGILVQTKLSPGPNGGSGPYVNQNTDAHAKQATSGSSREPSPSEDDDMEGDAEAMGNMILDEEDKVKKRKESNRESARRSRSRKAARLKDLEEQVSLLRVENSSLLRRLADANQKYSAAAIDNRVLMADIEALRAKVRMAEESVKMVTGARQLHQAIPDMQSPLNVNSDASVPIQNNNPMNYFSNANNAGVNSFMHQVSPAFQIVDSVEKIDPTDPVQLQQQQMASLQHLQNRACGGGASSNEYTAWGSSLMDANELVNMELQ
Outline: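 The binding signal is fluorescence intensity per array feature (arbitrary units). Readings came from an Axon 4000B scanner after a washed, 2% BSA-blocked, double-stranded custom Agilent array had been incubated for 1 h at 25 °C with 200 nM protein and 50 µM zinc acetate. The protein was a Ni–NTA-purified transcription factor fused N-terminally to polyhistidine and DsRed, expressed in E. coli BL21-CodonPlus.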

Sequence	binding signal
TGCATGTGGTTGGTCTATGTTTCTTTGAGCCGTGTTAGGACGGAGTCACCTAGTGCAG	18100 fluorescence intensity (a.u.)
GGCGAGACGGGGAGAGGAGGGGAGGGTGACGGCGGCCGGACGGAGTCACCTAGTGCAG	3300 fluorescence intensity (a.u.)
ACACATGTGACTCGAATTTTCTGATAAGAATCAAGCTACTCGGAGTCACCTAGTGCAG	4230 fluorescence intensity (a.u.)
CTGGAATGAGATTCAATCATTTTGGAGTTGACAATCCCAACGGAGTCACCTAGTGCAG	26800 fluorescence intensity (a.u.)
CATTCCAGGCAGTTTGAGGTGGGAGTATTGGATTGGTTTGCGGAGTCACCTAGTGCAG	4090 fluorescence intensity (a.u.)
CAGACTGTTGGGAGCCACGTCAGCCGGCGGCCTCCGCCGTCGGAGTCACCTAGTGCAG	19200 fluorescence intensity (a.u.)
GAGGAAGAAGGATGACATGTGGGGTCCACATGTCAGTGGGCGGAGTCACCTAGTGCAG	3510 fluorescence intensity (a.u.)
AATACTGTCCACTAGACAAATCTCACCTGCCTCTCCATCCCGGAGTCACCTAGTGCAG	3460 fluorescence intensity (a.u.)
GTCTCCTCGATTCCGATCCGGCGCCGGCGGCCATGGCCGACGGAGTCACCTAGTGCAG	3150 fluorescence intensity (a.u.)
GACTTATTGGAGATGACAAGGCAAACCAGATTCTTGAAGCCGGAGTCACCTAGTGCAG	34400 fluorescence intensity (a.u.)
AAGATCTGTATGCCTCATGAGGGTTGGTGTGTAATACTCCCGGAGTCACCTAGTGCAG	3890 fluorescence intensity (a.u.)
CCCACTCTCGTCGTACGTACGTGTCCTCGGCTATATATACCGGAGTCACCTAGTGCAG	6500 fluorescence intensity (a.u.)
GCTGCTGCCTCGTCTCCGCTGCCGCGTCGCCCGTCACCGGCGGAGTCACCTAGTGCAG	4380 fluorescence intensity (a.u.)
TATTCTGATGGCTTAAAATTGTTGATGATGTGGCTTCTTGCGGAGTCACCTAGTGCAG	15600 fluorescence intensity (a.u.)
TGTGATTGGTGCCACCTCCTCCTCCTCTGCCTCTCTCCTCCGGAGTCACCTAGTGCAG	4980 fluorescence intensity (a.u.)
GCGCATTCGCGTCAGCATGTATTATAGTTTGTGTTTCAAACGGAGTCACCTAGTGCAG	6220 fluorescence intensity (a.u.)
GAACCTGTTTATCACCACGTATCAAATAACCCACTTAAAGCGGAGTCACCTAGTGCAG	3740 fluorescence intensity (a.u.)
TTGGTATCCTTGTGCACTTGCATATTTGCTGCGTGGCTTGCGGAGTCACCTAGTGCAG	3610 fluorescence intensity (a.u.)
GGAGTAGTGACCGTGTGTAGCCACGTGACATGTGCATGCCCGGAGTCACCTAGTGCAG	5500 fluorescence intensity (a.u.)
TGTGGTGGCTGAGTCATCGTGGGATCCACGTGGGCCCCACCGGAGTCACCTAGTGCAG	24700 fluorescence intensity (a.u.)
TTCCTATGGAGAATAGAAACTCGAAGCCCAAGATGGCACTCGGAGTCACCTAGTGCAG	26800 fluorescence intensity (a.u.)

Sequence	binding signal
AGCAGTGTAGAGGAGGAGGAGGCGGCGGCGGCGGCGGCGGCGGAGTCACCTAGTGCAG	3880 fluorescence intensity (a.u.)
GTTGCAGGTTGATGGCTTGAGCACACTGTCCCCTCCACCGCGGAGTCACCTAGTGCAG	3650 fluorescence intensity (a.u.)
ATCGAGCTAGGTAGGGCATAGGATCGGGTCGATCGAGGCGCGGAGTCACCTAGTGCAG	3310 fluorescence intensity (a.u.)
CACCTGCTGAATGCTGACTGCAGTTCCCTGCGTAGTGAAACGGAGTCACCTAGTGCAG	3330 fluorescence intensity (a.u.)
AATGCATTTTGATAGTTTAGGTTCTTCGGTGACACATATGCGGAGTCACCTAGTGCAG	4730 fluorescence intensity (a.u.)
GGACCAGCTACCCTCAGTCAATGACTAGGTGGGACCGGAACGGAGTCACCTAGTGCAG	3880 fluorescence intensity (a.u.)
CATGACCGTGCTTCGTCATGTCGCCCTGTGCCGCCCCGCTCGGAGTCACCTAGTGCAG	6790 fluorescence intensity (a.u.)
AAGTCAAGGCCAAGTCGTCGGGAACGTGGACATTCCGTAACGGAGTCACCTAGTGCAG	4030 fluorescence intensity (a.u.)
AGCGAGCGCGAGCCGAGTTGTGGGGTGTTGAGATCGCTCTCGGAGTCACCTAGTGCAG	22600 fluorescence intensity (a.u.)
CTTAAAAGATTCGTATCGCAATTTACACGCAATTTGTGTACGGAGTCACCTAGTGCAG	3200 fluorescence intensity (a.u.)
CCTTCCTACACCTCGCCACCTCCCGCACACCTCGTCGCCCCGGAGTCACCTAGTGCAG	3460 fluorescence intensity (a.u.)
TTTTCTAGACAATACGTGCACGATAATACGAGAGCCCGCTCGGAGTCACCTAGTGCAG	3490 fluorescence intensity (a.u.)
CACTCCCGACCCTTTCCGCATCATCACGCTCACGCAGCCCCGGAGTCACCTAGTGCAG	5290 fluorescence intensity (a.u.)
CGCGGATCGGCCGCGAGGCGCACGTGGACATCACCACCAACGGAGTCACCTAGTGCAG	4220 fluorescence intensity (a.u.)
AAATGTTTATTATAGCACCACATTGTCAGATCATAGAGCACGGAGTCACCTAGTGCAG	3450 fluorescence intensity (a.u.)
CATATCTCTGCAGTATGTGTTACACTGTCATCTTTTCATGCGGAGTCACCTAGTGCAG	4380 fluorescence intensity (a.u.)
GATATGATTATTTATTTCTTTAAATGAAAATCATGTGTAACGGAGTCACCTAGTGCAG	32500 fluorescence intensity (a.u.)
AGACCATGCTCCCGGAGCGCGTCGACAAGCTCGGCGACGCCGGAGTCACCTAGTGCAG	3450 fluorescence intensity (a.u.)
CGATGACTCGTAATTTAATGTTTCATACCTCGCTTTATACCGGAGTCACCTAGTGCAG	3530 fluorescence intensity (a.u.)
GTCGGTGTCGACGTCGGCCACCGACACGTCGTCCGCCGCGCGGAGTCACCTAGTGCAG	5560 fluorescence intensity (a.u.)
CAATAAACCGGTGGTTGGACCGGTCCAACCAATAAACCAGCGGAGTCACCTAGTGCAG	43900 fluorescence intensity (a.u.)

Part of the list above, set out differently.
Sequence,binding signal
CACCTGCTGAATGCTGACTGCAGTTCCCTGCGTAGTGAAACGGAGTCACCTAGTGCAG,3330 fluorescence intensity (a.u.)
AATGCATTTTGATAGTTTAGGTTCTTCGGTGACACATATGCGGAGTCACCTAGTGCAG,4730 fluorescence intensity (a.u.)
GGACCAGCTACCCTCAGTCAATGACTAGGTGGGACCGGAACGGAGTCACCTAGTGCAG,3880 fluorescence intensity (a.u.)
CATGACCGTGCTTCGTCATGTCGCCCTGTGCCGCCCCGCTCGGAGTCACCTAGTGCAG,6790 fluorescence intensity (a.u.)
AAGTCAAGGCCAAGTCGTCGGGAACGTGGACATTCCGTAACGGAGTCACCTAGTGCAG,4030 fluorescence intensity (a.u.)
AGCGAGCGCGAGCCGAGTTGTGGGGTGTTGAGATCGCTCTCGGAGTCACCTAGTGCAG,22600 fluorescence intensity (a.u.)
CTTAAAAGATTCGTATCGCAATTTACACGCAATTTGTGTACGGAGTCACCTAGTGCAG,3200 fluorescence intensity (a.u.)
CCTTCCTACACCTCGCCACCTCCCGCACACCTCGTCGCCCCGGAGTCACCTAGTGCAG,3460 fluorescence intensity (a.u.)
TTTTCTAGACAATACGTGCACGATAATACGAGAGCCCGCTCGGAGTCACCTAGTGCAG,3490 fluorescence intensity (a.u.)
CACTCCCGACCCTTTCCGCATCATCACGCTCACGCAGCCCCGGAGTCACCTAGTGCAG,5290 fluorescence intensity (a.u.)
CGCGGATCGGCCGCGAGGCGCACGTGGACATCACCACCAACGGAGTCACCTAGTGCAG,4220 fluorescence intensity (a.u.)
AAATGTTTATTATAGCACCACATTGTCAGATCATAGAGCACGGAGTCACCTAGTGCAG,3450 fluorescence intensity (a.u.)
